Measured values as given in the supplement of paper PMC4604168 (melanoma cell lines).
The list shows a part of the results. Repeats are few or missing, and single values can be far off.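 Imaging used 1,536-well plates; nuclei positive for cleaved PARP by antibody were divided by total DNA-stained nuclei to yield the apoptosis fraction. Doses for screening kept most cells viable, and cell lines differ markedly in resting and induced cleaved-PARP levels.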

Each compound was assayed on WM1716 (assay: cleaved PARP positive nuclei fraction relative to DMSO control; melanoma cells; higher = more apoptosis). Settings: library dose: low library concentration; 72 h.

Structure (SMILES)	cleaved PARP positive nuclei fraction
COc1ccc(C2=N[C@@H](c3ccc(Cl)cc3)[C@@H](c3ccc(Cl)cc3)N2C(=O)N2CCNC(=O)C2)c(OC(C)C)c1 [Nutlin-3] + Cc1cc(SCc2sc(-c3ccc(C(F)(F)F)c(F)c3)nc2C)ccc1OCC(=O)O [GW0742] (first compound 0.1 µM, partner dose 2 µM)	61.3%
Cn1cc(C2=C(c3cn(C4CCN(Cc5ccccn5)CC4)c4ccccc34)C(=O)NC2=O)c2ccccc21 [Enzastaurin] + O=C(Nc1cccc(Cl)c1)Nc1ncc(CCNc2ncnc3ccsc23)s1 [SNS314] (first compound 0.8 µM, partner dose 0.0008 µM)	60.9%
COc1cc(Nc2ncc(F)c(Nc3ccc4c(n3)NC(=O)C(C)(C)O4)n2)cc(OC)c1OC [Tamatinib] + O=C(Oc1ccc([N+](=O)[O-])cc1)N1CCC(C(O)(c2ccc3c(c2)OCO3)c2ccc3c(c2)OCO3)CC1 [JZL184] (first compound 0.4 µM, partner dose 1 µM)	66.3%
Cn1cc(C2=C(c3cn(C4CCN(Cc5ccccn5)CC4)c4ccccc34)C(=O)NC2=O)c2ccccc21 [Enzastaurin] + COc1cc(N2CCC(N3CCN(C)CC3)CC2)ccc1Nc1ncc(Cl)c(Nc2ccccc2S(=O)(=O)C(C)C)n1 [NVP-TAE684] (first compound 0.8 µM, partner dose 0.08 µM)	255%
N.N.[Cl][Pt][Cl] [cisplatin] + O=C(Oc1ccc([N+](=O)[O-])cc1)N1CCC(C(O)(c2ccc3c(c2)OCO3)c2ccc3c(c2)OCO3)CC1 [JZL184] (first compound 1.6 µM, partner dose 1 µM)	217%
Cn1cc(C2=C(c3cn(C4CCN(Cc5ccccn5)CC4)c4ccccc34)C(=O)NC2=O)c2ccccc21 [Enzastaurin] + COc1ccc(Cl)c(Nc2nc3ccccc3nc2NS(=O)(=O)c2cccc(NC(=O)C(C)(C)N)c2)c1 [XL147] (first compound 0.8 µM, partner dose 0.8 µM)	31.5%
Nc1ncn([C@H]2C[C@H](O)[C@@H](CO)O2)c(=O)n1 [decitabine] + O=C(Oc1ccc([N+](=O)[O-])cc1)N1CCC(C(O)(c2ccc3c(c2)OCO3)c2ccc3c(c2)OCO3)CC1 [JZL184] (first compound 0.1 µM, partner dose 1 µM)	250%
Cc1cc(SCc2sc(-c3ccc(C(F)(F)F)c(F)c3)nc2C)ccc1OCC(=O)O + Oc1cc(-c2nc(-c3ccccc3)[nH]c2-c2ccncc2)ccc1Cl [L779450] (first compound 2 µM, partner dose 0.2 µM)	104%
C[C@]12O[C@H](C[C@]1(O)CO)n1c3ccccc3c3c4c(c5c6ccccc6n2c5c31)CNC4=O [Lestaurtinib] + CC(C)CCN1c2nc(Nc3cc(F)c(O)c(F)c3)ncc2N(C)C(=O)C1C [BID1870] (first compound 0.004 µM, partner dose 0.2 µM)	36.9%
N#CC[C@H](C1CCCC1)n1cc(-c2ncnc3[nH]ccc23)cn1 [ruxolitinib] + C[C@]12O[C@H](C[C@]1(O)CO)n1c3ccccc3c3c4c(c5c6ccccc6n2c5c31)CNC4=O [Lestaurtinib] (first compound 1 µM, partner dose 0.004 µM)	34.1%
C=C(c1ccc(C(=O)O)cc1)c1cc2c(cc1C)C(C)(C)CCC2(C)C [Bexarotene] + O=C(Oc1ccc([N+](=O)[O-])cc1)N1CCC(C(O)(c2ccc3c(c2)OCO3)c2ccc3c(c2)OCO3)CC1 [JZL184] (first compound 2 µM, partner dose 1 µM)	96.1%
COc1ccc(-c2ccc3c(N4CCOCC4)nc(N4C[C@@H](C)O[C@@H](C)C4)nc3n2)cc1CO + O=C(Oc1ccc([N+](=O)[O-])cc1)N1CCC(C(O)(c2ccc3c(c2)OCO3)c2ccc3c(c2)OCO3)CC1 [JZL184] (first compound 0.02 µM, partner dose 1 µM)	109%
C[C@@H](Oc1cc(-c2cnn(C3CCNCC3)c2)cnc1N)c1c(Cl)ccc(F)c1Cl [Crizotinib] + Cc1cc(SCc2sc(-c3ccc(C(F)(F)F)c(F)c3)nc2C)ccc1OCC(=O)O [GW0742] (first compound 0.2 µM, partner dose 2 µM)	105%
Cn1nnc2c(C(N)=O)ncn2c1=O [temozolomide] + C/C(O)=C(\C#N)C(=O)Nc1cc(Br)ccc1Br [LFM-A13] (first compound 2 µM, partner dose 2 µM)	161%
CNC(=O)c1cc(Oc2ccc(NC(=O)Nc3ccc(Cl)c(C(F)(F)F)c3)cc2)ccn1 [sorafenib] + Cc1cc(SCc2sc(-c3ccc(C(F)(F)F)c(F)c3)nc2C)ccc1OCC(=O)O [GW0742] (first compound 0.4 µM, partner dose 2 µM)	108%
Cn1cnc2c(F)c(Nc3ccc(Br)cc3Cl)c(C(=O)NOCCO)cc21 [selumetinib] + C[C@]12O[C@H](C[C@]1(O)CO)n1c3ccccc3c3c4c(c5c6ccccc6n2c5c31)CNC4=O [Lestaurtinib] (first compound 0.015 µM, partner dose 0.004 µM)	28.2%
CS(=O)(=O)CCNCc1ccc(-c2ccc3ncnc(Nc4ccc(OCc5cccc(F)c5)c(Cl)c4)c3c2)o1 [lapatinib] + O=C(Oc1ccc([N+](=O)[O-])cc1)N1CCC(C(O)(c2ccc3c(c2)OCO3)c2ccc3c(c2)OCO3)CC1 [JZL184] (first compound 0.8 µM, partner dose 1 µM)	182%
Nc1ccn([C@@H]2O[C@H](CO)[C@@H](O)C2(F)F)c(=O)n1 [gemcitabine] + Cc1cc(SCc2sc(-c3ccc(C(F)(F)F)c(F)c3)nc2C)ccc1OCC(=O)O [GW0742] (first compound 0.0004 µM, partner dose 2 µM)	215%
CS(=O)(=O)CCNCc1ccc(-c2ccc3ncnc(Nc4ccc(OCc5cccc(F)c5)c(Cl)c4)c3c2)o1 [lapatinib] + C[As](C)SC[C@H](NC(=O)CC[C@H](N)C(=O)O)C(=O)NCC(=O)O [Darinaparsin] (first compound 0.8 µM, partner dose 0.4 µM)	120%
C[C@]1(c2nc3c(C(N)=O)cccc3[nH]2)CCCN1 [Veliparib] + Cc1cc(SCc2sc(-c3ccc(C(F)(F)F)c(F)c3)nc2C)ccc1OCC(=O)O [GW0742] (first compound 1.4 µM, partner dose 2 µM)	79.3%
CN1CCN(c2ccc3nc(-c4c(N)c5c(F)cccc5[nH]c4=O)[nH]c3c2)CC1 [Dovitinib] + O=C(Oc1ccc([N+](=O)[O-])cc1)N1CCC(C(O)(c2ccc3c(c2)OCO3)c2ccc3c(c2)OCO3)CC1 [JZL184] (first compound 0.1 µM, partner dose 1 µM)	156%
COC(=O)c1sccc1S(=O)(=O)Nc1ccc(Nc2ccccc2)cc1OC + C/C(O)=C(\C#N)C(=O)Nc1cc(Br)ccc1Br [LFM-A13] (first compound 1 µM, partner dose 2 µM)	185%
Cc1cc(Nc2cc(N3CCN(C)CC3)nc(Sc3ccc(NC(=O)C4CC4)cc3)n2)n[nH]1 [Tozasertib] + O=C(Oc1ccc([N+](=O)[O-])cc1)N1CCC(C(O)(c2ccc3c(c2)OCO3)c2ccc3c(c2)OCO3)CC1 [JZL184] (first compound 0.006 µM, partner dose 1 µM)	62.2%
CCN(CC)CCCCNc1ncc2cc(-c3cc(OC)cc(OC)c3)c(NC(=O)NC(C)(C)C)nc2n1 + O=C(Oc1ccc([N+](=O)[O-])cc1)N1CCC(C(O)(c2ccc3c(c2)OCO3)c2ccc3c(c2)OCO3)CC1 [JZL184] (first compound 0.1 µM, partner dose 1 µM)	90.4%
N.N.[Cl][Pt][Cl] [cisplatin] + CC(=O)c1c(C)c2cnc(Nc3ccc(N4CCNCC4)cn3)nc2n(C2CCCC2)c1=O [palbociclib] (first compound 1.6 µM, partner dose 0.04 µM)	62.9%
C[C@]12O[C@H](C[C@]1(O)CO)n1c3ccccc3c3c4c(c5c6ccccc6n2c5c31)CNC4=O [Lestaurtinib] + C#Cc1cccc(Nc2ncnc3cc(OCCOC)c(OCCOC)cc23)c1 [erlotinib] (first compound 0.004 µM, partner dose 0.8 µM)	1130%
Cn1cc(C2=C(c3cn(C4CCN(Cc5ccccn5)CC4)c4ccccc34)C(=O)NC2=O)c2ccccc21 [Enzastaurin] + CNC(=O)c1cc(Oc2ccc(NC(=O)Nc3ccc(Cl)c(C(F)(F)F)c3)cc2)ccn1 [sorafenib] (first compound 0.8 µM, partner dose 0.4 µM)	192%
OCc1c[nH]c2ccccc12 [Indole-3-carbinol] + C[As](C)SC[C@H](NC(=O)CC[C@H](N)C(=O)O)C(=O)NCC(=O)O [Darinaparsin] (first compound 0.8 µM, partner dose 0.4 µM)	99.2%
C[C@]12O[C@H](C[C@]1(O)CO)n1c3ccccc3c3c4c(c5c6ccccc6n2c5c31)CNC4=O [Lestaurtinib] + CS(=O)(=O)CCNCc1ccc(-c2ccc3ncnc(Nc4ccc(OCc5cccc(F)c5)c(Cl)c4)c3c2)o1 [lapatinib] (first compound 0.004 µM, partner dose 0.8 µM)	64.1%

Part of the list above, with bars between the fields:
Structure (SMILES) | cleaved PARP positive nuclei fraction
CNC(=O)c1cc(Oc2ccc(NC(=O)Nc3ccc(Cl)c(C(F)(F)F)c3)cc2)ccn1 [sorafenib] + Cc1cc(SCc2sc(-c3ccc(C(F)(F)F)c(F)c3)nc2C)ccc1OCC(=O)O [GW0742] (first compound 0.4 µM, partner dose 2 µM) | 108%
Cn1cnc2c(F)c(Nc3ccc(Br)cc3Cl)c(C(=O)NOCCO)cc21 [selumetinib] + C[C@]12O[C@H](C[C@]1(O)CO)n1c3ccccc3c3c4c(c5c6ccccc6n2c5c31)CNC4=O [Lestaurtinib] (first compound 0.015 µM, partner dose 0.004 µM) | 28.2%
